In publication PMC3853316 one finds binding data, which are given here for one molecule.

Results are given in words; binding and its absence hold for the method and conditions named. Some entries that bind do so weakly or less than the wild type. Where a sequence is shown, tags or fusion partners need not be part of it.

This experiment addresses recombinant full-length human MFAP4 without a His6- and V5-tag (human) (UniProt P55083). Put plainly: SEC; analytical Superose 6 10/300 GL, TBS, 10 mM EDTA, 0.05% emulphogen, 0.4 ml/min; unpurified samples (CHO culture supernatant, normal human serum, MFAP4-depleted serum reconstituted with recMFAP4); 1-ml fractions analysed by MFAP4 ELISA. For orientation: Size exclusion chromatography separates by hydrodynamic size, large species first.

B1: recombinant full-length human MFAP4 without a His6- and V5-tag (protein, UniProt P55083 22-255)
chain: VSGIRGDALERFCLQQPLDCDDIYAQGYQSDGVYLIYPSGPSVPVPVFCDMTTEGGKWTVFQKRFNGSVSFFRGWNDYKLGFGRADGEYWLGLQNMHLLTLKQKYELRVDLEDFENNTAYAKYADFSISPNAVSAEEDGYTLFVAGFEDGGAGDSLSYHSGQKFSTFDRDQDLFVQNCAALSSGAFWFRSCHFANLNGFYLGGSHLSYANGINWAQWKGFYYSLKRTEMKIRRA
On to B1, for which the binding entry is “binds”.
